Data: PubChem BioAssay AID504467 (National Center for Advancing Translational Sciences (NCATS), 2011)
Out of some 330,000 compounds screened, about 7,700 (2.3%) were called active. This list was built around the results that the source calls inconclusive (neither active nor inactive); the mix of calls is not that of the screen. The call rests on the fitted dose curve; in most records, active means well fitted inhibition curve with a large enough effect; inconclusive means small, poorly fitted or top-dose-only effect, or effect the other way; inactive means flat fitted curve, though single readings scatter. A potency beside an inconclusive call is a rough fit, not a confirmed value.

Assay: qHTS screen for small molecules that inhibit ELG1-dependent DNA repair in human embryonic kidney (HEK293T) cells expressing luciferase-tagged ELG1; further: nearly all actives have a fitted effect of over 55% in size
Details: HEK293T ELG1-luciferase reporter, luminescence, 16 h, DNA damage induced by 5-fluorouridine; activity change, negative = inhibition: at 46.1 µM (top of the series)
Procedure, shortened: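 DMSO vehicle served as the neutral condition. Each well held 2,000 cells given 5-fluorouridine plus compound; after 16 hr at 37 °C/5% CO2, ONE-Glo was added and luciferase measured 30 min later.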
On the % scale 0 is the no-effect control and ±100 the full control effect; potency means the concentration at half of the fitted maximal effect.

Row | SMILES | activity change, negative = inhibition | Potency
1 | CCc1ccccc1NC(=O)Nc1ccc(F)cc1 | inactive: -4.43% | 
2 | COc1ccc(-c2nn(-c3ccccc3)cc2/C=N/NC(=O)c2cccc(S(=O)(=O)Nc3ccccc3Cl)c2)cc1 |  | inconclusive: 18.4 µM [inhibitor, single point]
3 | COc1ccccc1C(=O)NNC(=O)CCCN1C(=O)/C(=C/c2cccs2)SC1=S |  | inconclusive: 20.6 µM [inhibitor, partial curve, poor fit]
4 | O=C(CCC(=O)c1ccc[nH]1)c1ccc(Cl)cc1 |  | inconclusive: 5.8 µM [activator, partial curve]
5 | CCCn1nc(C(=O)NNC(=O)c2ccc(C)c(C)c2)c2ccccc2c1=O |  | inconclusive: 29.1 µM [inhibitor, single point]
6 | O=C(COc1ccc(Cl)cc1)N1CCN(c2ncccn2)CC1 | inconclusive: 20.3% [activator] | 
7 | O=C(NC1CCCCCC1)c1c(O)c2ccccc2[nH]c1=O |  | inconclusive: 13 µM [activator, partial curve]
8 | COc1ccc(CC(=O)Nc2cccc(-c3nnc(-c4cccc(C)c4)o3)c2)cc1OC |  | active: 2.91 µM
9 | CCn1c(=O)cc(SCC(=O)NCc2ccc3c(c2)OCO3)c2ccccc21 |  | inconclusive: 5.17 µM [activator, single point]
10 | COc1ccc(-n2c(C)cc(/C=C3/SC(=S)N(C)C3=O)c2C)cc1 |  | inconclusive: 6.51 µM [activator, partial curve]
11 | Cc1noc(C)c1CN(C(=S)NC(C)C)c1ccccc1 |  | inconclusive: 16.4 µM [activator, single point]
12 | O=C(CSc1nc2ccccc2c(=O)n1-c1ccc(F)cc1)Nc1ccc(Cl)c(S(=O)(=O)N2CCOCC2)c1 | inactive: -26.7% | 
13 | COC(=O)c1c(NC(=O)Cc2ccccc2)sc2c1CCN(C(C)C)C2 | inactive: -1.53% | 
14 | CC(C)C(NC(=O)c1cccc(S(=O)(=O)N2CCOCC2)c1)C(=O)NCc1ccc(Cl)cc1 (stereo not given) | inactive: -4.49% | 
15 | CCc1ccc2c(c1)C1(NN=C(c3ccc(C)cc3)S1)C(=O)N2 (stereo not given) |  | inconclusive: 29.1 µM [activator, single point]
16 | c1ccc(CN2CCN(c3ncnc4nc[nH]c34)CC2)cc1 | inactive: -16.8% | 
17 | COc1ccc(Nc2nc(N3CCCC3)nc(N3CCCC3)n2)c(OC)c1 |  | inconclusive: 25.9 µM [inhibitor, single point]
18 | O=C(CCNC(=O)c1ccco1)NCCN1C(=O)S/C(=C\c2ccc(F)cc2)C1=O |  | inconclusive: 14.6 µM [activator, partial curve]
19 | FC(F)(F)c1cc(Nc2ccccc2)nc(-c2ccccn2)n1 | inactive: -12.7% | 
20 | O=C(Nc1ccccc1)Nc1ccc2ccccc2c1 |  | inconclusive: 5.17 µM [activator, partial curve]
21 | CCc1cccc(NC(=O)Cn2c(=O)c3cccn3c3ccccc32)c1 | inactive: 24.4% | 
22 | CCc1nnc(NC(=O)CSc2ccc(-c3ccco3)nn2)s1 | inactive: 0% | 
23 | CN1/C(=C\C(=O)COC(=O)c2ccc(O)cc2)C(C)(C)c2ccccc21 |  | active: 20.6 µM
24 | N#C/C(=C(/O)COc1ccc(Cl)cc1)c1nc2ccccc2s1 |  | inconclusive: 23.1 µM [inhibitor, partial curve]

Row | SMILES | activity change, negative = inhibition | Potency
25 | CC(=O)Cc1nsc(NC(=O)C2Cc3ccccc3C(=O)O2)n1 (stereo not given) | inactive: 18.9% | 
26 | O=S1(=O)CCOCCCN1Cc1ccccc1 | inactive: -4.38% | 
27 | CCO/N=C/C1=C(O)C(C(=O)OC)C(C)(C)CC1=O (stereo not given) |  | inconclusive: 6.51 µM [inhibitor, single point]
28 | O=C(COc1cccc(NC(=O)c2ccco2)c1)c1ccccc1 |  | inconclusive: 25.9 µM [activator, partial curve, poor fit]
29 | O=C(NNc1nc2ccccc2s1)c1ccc(F)cc1 |  | inconclusive: 20.6 µM [activator, partial curve]
30 | NC(N)=N/N=C/c1ccc(Br)cc1 | inactive: -16.8% | 
31 | Cc1ccc(C23CC4CC(CC(CC(=O)NC(C)(C)CO)(C4)C2)C3)cc1 |  | inconclusive: 32.6 µM [inhibitor, single point]
32 | COc1ccc(C2C(C(N)=O)=C(C)Nc3nc(-c4ccccc4)nn32)cc1OC (stereo not given) |  | inconclusive: 29.1 µM [activator, single point]
33 | CCn1c2ccccc2c2cc(/C=N/n3c(-c4cc(C)[nH]n4)n[nH]c3=S)ccc21 |  | inconclusive: 25.9 µM [inhibitor, single point]
34 | O=C1CCCc2c1[nH]c1ccc(CN3CCCCC3)cc21 |  | inconclusive: 20.6 µM [activator, partial curve]
35 | CCOc1ccc(N(CC(=O)NCCSCc2ccco2)S(=O)(=O)c2ccc(C)cc2)cc1 |  | inconclusive: 32.6 µM [inhibitor, single point]
36 | O=C(c1ccc2c(c1)OCO2)N1CCc2ccccc21 |  | inconclusive: 18.3 µM [activator, partial curve]
37 | COc1cc2c(cc1OC)CN(CC(=O)Nc1cccc([N+](=O)[O-])c1)CC2 |  | inconclusive: 29.1 µM [inhibitor, single point]
38 | Cc1ccc(/C=N/NC(=O)c2nnn(-c3nonc3N)c2CN(C)C)s1 | inactive: 25.9% | 
39 | CCOc1ccc(N(CC(=O)NCCc2ccc(C)cc2)S(=O)(=O)c2c(C)noc2C)cc1 | inactive: -1.69% | 
40 | CCSc1nnc(NC(=O)c2ccc(Br)s2)s1 |  | inconclusive: 25.9 µM [activator, single point]
41 | CC(=O)N1c2ccccc2C(C)=CC1(C)C | inactive: 5.66% | 
42 | O=C1c2cccc(OCc3ccc(F)cc3)c2CCN1Cc1ccccc1 |  | inconclusive: 2.06 µM [inhibitor, partial curve]
43 | CC(C)OC(=O)c1ccc(N2CCN(c3ccccc3F)CC2)nc1 |  | inconclusive: 20.6 µM [inhibitor, partial curve]
44 | Cc1cc(C)c2c(c1)C(=O)/C(=C/c1ccc(C(=O)O)cc1)CC2 |  | inconclusive: 14.6 µM [activator, partial curve]
45 | COc1cc(/C=C/C(=O)OCC(=O)N2CCCc3ccccc32)ccc1O |  | inconclusive: 29.1 µM [inhibitor, single point]
46 | COc1ccc(OC)c(C(C)NC(=O)c2ccc(Br)cc2)c1 (stereo not given) | inactive: -5.31% | 
47 | CC(C)N1CCC(N2CCN(Cc3nc4ccccc4s3)CC2CCO)CC1 (stereo not given) |  | inconclusive: 18.3 µM [activator, partial curve, poor fit]
48 | COC(=O)N[C@@H]1C[C@H]2[C@@H]3CC[C@H]4C[C@@H](OC)CC[C@]4(C)[C@H]3CC[C@]12C | inactive: 11.6% | 

Row | SMILES | activity change, negative = inhibition | Potency
49 | CCC(C)NS(=O)(=O)c1ccc(F)c(C(=O)Nc2c(F)cc(F)cc2Br)c1 (stereo not given) |  | inconclusive: 11.6 µM [inhibitor, partial curve, poor fit]
50 | Cc1ccc(-c2nc(CN3CCCCC3)cc(CN3CCCCC3)c2O)cc1 |  | inconclusive: 7.3 µM [activator, partial curve]
51 | COc1ccc(C(CNC(=O)COc2ccccc2C)N2CCOCC2)cc1 (stereo not given) | inactive: -0.891% | 
52 | COc1cc([N+](=O)[O-])ccc1NC(=O)CSc1ccccn1 | inactive: -8.72% | 
53 | Cc1ccc(OCC(=O)c2cc(C)c(C)cc2C)c([N+](=O)[O-])n1 |  | inconclusive: 16.4 µM [activator, partial curve, poor fit]
54 | Cc1nn(CC(=O)N(C)Cc2ccccc2)c(=O)c2cccn12 |  | inconclusive: 32.6 µM [activator, partial curve, poor fit]
55 | CCn1c(-c2nn(-c3ccc(C)cc3)ccc2=O)n[nH]c1=S | inactive: 0.426% | 
56 | Cc1ccc(C(=O)Nc2ccc3c(c2)C(=O)N(CC2CCCO2)C3=O)cc1 (stereo not given) |  | inconclusive: 25.9 µM [inhibitor, single point]
57 | CCN(CC(=O)Nc1c(F)cccc1F)C(=O)COc1ccc2c(c1)CCC2 | inactive: 8.43% | 
58 | COc1ccc(Cn2nc(-c3ccccc3)c(N3CCCCC3)cc2=O)cc1 | inactive: -11.4% | 
59 | Clc1ccc(CN(Cc2ccc(Cl)cc2)c2nn[nH]n2)cc1 |  | inconclusive: 11.6 µM [inhibitor, partial curve, poor fit]
60 | CN1C(=O)/C(=C/C=C2\SCCN2C)N(C)C1=S |  | inconclusive: 14.6 µM [activator, partial curve]
61 | Cc1ccccc1OCC(=O)NC1CCCCCCC1 |  | inconclusive: 29.1 µM [activator, single point]
62 | Cc1cccc(Oc2cc(N)cc([N+](=O)[O-])c2)c1 |  | inconclusive: 25.9 µM [activator, partial curve, poor fit]
63 | CCOc1ccc(S(=O)(=O)N2CCCC(C(=O)NCc3ccncc3)C2)cc1C (stereo not given) |  | inconclusive: 16.4 µM [inhibitor, partial curve, poor fit]
64 | C=CCN1C(c2cccc(C(F)(F)F)c2)=CS/C1=C(/C#N)c1nnc(N2CCOCC2)n1-c1ccccc1 |  | inconclusive: 18.4 µM [inhibitor, single point]
65 | CCOc1cccc2cc(-c3cn4cc(C)ccc4n3)c(=O)oc12 |  | inconclusive: 0.92 µM [activator, full curve, poor fit]
66 | CC(C)[C@H](NC(=O)N1CC(=O)Nc2ccccc21)C(=O)N1CCC(C(=O)O)CC1 | inactive: -0.0131% | 
67 | CCN(CC)S(=O)(=O)c1ccc(OC)c(NC(=O)CC2CCCC2)c1 | inactive: 1.38% | 
68 | O=C(COC(=O)CNC(=O)c1ccccc1)Nc1nc(-c2ccccc2)cs1 |  | inconclusive: 16.4 µM [activator, partial curve]
69 | CC(C)c1nc(NCC2CCCO2)c(C#N)c2c1COC(C)(C)C2 (stereo not given) |  | inconclusive: 18.4 µM [inhibitor, single point]
70 | O=c1oc2cc(O)ccc2c2oc3cc(O)ccc3c12 |  | inconclusive: 32.6 µM [activator, partial curve, poor fit]

Single entries from the results shown:
Value of O=C(COC(=O)CNC(=O)c1ccccc1)Nc1nc(-c2ccccc2)cs1 under Potency: inconclusive: 16.4 µM [activator, partial curve]
Value of COc1ccc(Cn2nc(-c3ccccc3)c(N3CCCCC3)cc2=O)cc1 under activity change, negative = inhibition: inactive: -11.4%
Value of Cc1ccc(C(=O)Nc2ccc3c(c2)C(=O)N(CC2CCCO2)C3=O)cc1 (stereo not given) under Potency: inconclusive: 25.9 µM [inhibitor, single point]
Value of CC(C)c1nc(NCC2CCCO2)c(C#N)c2c1COC(C)(C)C2 (stereo not given) under Potency: inconclusive: 18.4 µM [inhibitor, single point]
